Only a part is listed here, and it is no random draw. At the low end of the ranking the order means little.

The results in this text go back to paper PMC7862700.

The first assay addresses T1, ELK3 (UniProt P41970).
T1 sequence: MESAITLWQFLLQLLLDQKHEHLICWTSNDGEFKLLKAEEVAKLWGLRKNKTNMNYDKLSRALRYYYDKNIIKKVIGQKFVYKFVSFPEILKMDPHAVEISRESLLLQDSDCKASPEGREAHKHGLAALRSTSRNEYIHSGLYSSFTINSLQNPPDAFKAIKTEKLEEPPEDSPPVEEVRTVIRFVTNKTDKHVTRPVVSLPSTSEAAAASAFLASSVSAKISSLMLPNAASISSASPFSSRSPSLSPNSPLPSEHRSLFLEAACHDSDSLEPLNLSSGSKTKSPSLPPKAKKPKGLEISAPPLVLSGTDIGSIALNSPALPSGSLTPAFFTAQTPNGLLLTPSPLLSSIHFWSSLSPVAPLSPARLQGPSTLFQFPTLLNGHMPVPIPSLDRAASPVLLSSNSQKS
Description: DAPPL (digital affinity profiling via proximity ligation, sequencing). To be noted: 10 mM Tris-HCl pH 7.5, 50 mM NaCl, 1 mM DTT, 4% glycerol, room temperature, 30 min; GST-TFs on glutathione beads, 16-mer random dsDNA library, 0.1% …; high values mean tight binding; double strand, one strand shown; scale: fold enrichment (6-mer frequency, TF over GST control).
Turning to AAAGCA, the binding signal worked out at 1.05.

The sequence AGGTAA had a binding signal of 0.932.

In turn, GGCAAT showed a binding signal of 0.823.

Consider GAATGG, for which the binding signal was 0.88.

CCCTGT showed a binding signal of 0.996.

As for GATTGC, the binding signal is 0.923.

For CATCAA, the binding signal amounted to 1.07.

The sequence GCCCGG came in with a binding signal of 0.926.

As for ACGGTT, the binding signal was 0.955.

TCGAGT showed a binding signal of 0.936.

GACCAA: the binding signal is 0.932.

As to GCCACA, the binding signal turned out to be 0.932.

The sequence GCGAAT returned a binding signal of 0.981.

The target of a further assay is T2, SPIC (UniProt Q8N5J4).
T2 sequence: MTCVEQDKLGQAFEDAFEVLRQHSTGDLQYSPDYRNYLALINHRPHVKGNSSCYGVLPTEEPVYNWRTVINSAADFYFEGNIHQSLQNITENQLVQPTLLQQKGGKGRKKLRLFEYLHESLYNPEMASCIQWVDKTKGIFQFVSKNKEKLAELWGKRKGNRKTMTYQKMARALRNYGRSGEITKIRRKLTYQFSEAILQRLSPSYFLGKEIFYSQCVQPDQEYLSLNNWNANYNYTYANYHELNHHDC
The description is as above. To be noted: 10 mM Tris-HCl pH 7.5, 50 mM NaCl, 1 mM DTT, 4% glycerol, room temperature, 30 min; GST-TFs on glutathione beads, 16-mer random dsDNA library, 0.1% …; high values mean tight binding; double strand, one strand shown; scale: fold enrichment (6-mer frequency, TF over GST control).
The sequence ACCACG came in with a binding signal of 1.08.

AACGCA displayed a binding signal of 1.02.

Sequence TCTACC returned a binding signal of 1.53.

CGCTAA had a binding signal of 0.999.

On to AAAGCA, for which the binding signal amounted to 1.01.

AACGAT came in with a binding signal of 1.19.

In the case of ACTGAA, the binding signal worked out at 1.31.

In the case of AGGTAA, the binding signal was 0.772.

In the case of GGTCTG, the binding signal is 0.764.

On to GGCAAT, for which the binding signal amounted to 0.917.

Consider GAATGG, for which the binding signal came out at 0.994.

The sequence AGAATG showed a binding signal of 0.974.

As for ATGTGC, the binding signal amounted to 1.17.

In turn, GATGTA gave a binding signal of 1.12.

In turn, CCCCCC gave a binding signal of 0.977.

The sequence CCCTGT showed a binding signal of 1.2.

Sequence TCCCCG returned a binding signal of 1.04.

As to GATTGC, the binding signal stood at 0.996.

For the sequence TAGACA, the binding signal was found to be 0.918.

For CATCAA, the binding signal turned out to be 0.924.

As to GCAAAC, the binding signal is 0.887.

With CATGGG, the binding signal amounted to 1.05.

Regarding TTCCCG, the binding signal was found to be 1.91.

For GAAAAT, the binding signal stood at 1.09.

GCCCGG registered a binding signal of 0.936.

Sequence ACGGTT yielded a binding signal of 1.04.

The sequence GGTGGT returned a binding signal of 0.958.

CTATAG yielded a binding signal of 0.976.

Sequence GTCTAT returned a binding signal of 1.18.

Take AGCTTA: the binding signal is 1.12.

As for TCGAGT, the binding signal came out at 0.888.

With GACCAA, the binding signal is 0.849.

Sequence GCCACA returned a binding signal of 0.983.

Regarding TTCCGG, the binding signal came out at 5.6.

ACAGCA yielded a binding signal of 0.969.

As for GATTAA, the binding signal was 0.959.

For GCGAAT, the binding signal stood at 0.963.

With ATGGGG, the binding signal was determined as 1.16.

The sequence ATATTT had a binding signal of 1.45.

The next assay addresses T3, ETS2 (UniProt P15036).
T3 sequence: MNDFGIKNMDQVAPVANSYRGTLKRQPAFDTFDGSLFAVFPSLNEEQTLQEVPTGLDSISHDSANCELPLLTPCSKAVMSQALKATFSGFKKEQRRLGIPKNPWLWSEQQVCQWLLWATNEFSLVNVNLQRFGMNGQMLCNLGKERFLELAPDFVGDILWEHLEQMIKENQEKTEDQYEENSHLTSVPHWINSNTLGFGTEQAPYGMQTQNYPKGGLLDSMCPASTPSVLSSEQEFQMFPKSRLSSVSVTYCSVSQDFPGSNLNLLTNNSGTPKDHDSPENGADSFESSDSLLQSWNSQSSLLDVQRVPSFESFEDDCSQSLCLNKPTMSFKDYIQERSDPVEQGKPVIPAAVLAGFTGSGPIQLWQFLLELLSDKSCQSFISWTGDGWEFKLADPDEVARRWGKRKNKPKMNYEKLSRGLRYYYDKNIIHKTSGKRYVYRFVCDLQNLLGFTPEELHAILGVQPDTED
The assay is described as above. Particulars: 10 mM Tris-HCl pH 7.5, 50 mM NaCl, 1 mM DTT, 4% glycerol, room temperature, 30 min; GST-TFs on glutathione beads, 16-mer random dsDNA library, 0.1% …; high values mean tight binding; double strand, one strand shown; scale: fold enrichment (6-mer frequency, TF over GST control).
For ACCACG, the binding signal came out at 0.959.

As for AACGCA, the binding signal stood at 1.1.

The sequence TCTACC came in with a binding signal of 1.6.

With CGCTAA, the binding signal came out at 0.901.

For the sequence AAAGCA, the binding signal came to 1.05.

AACGAT gave a binding signal of 1.22.

The sequence ACTGAA came in with a binding signal of 1.23.

Take AGGTAA: the binding signal was 0.97.

GGTCTG returned a binding signal of 0.986.

Sequence GGCAAT had a binding signal of 0.912.

Sequence GAATGG yielded a binding signal of 1.

Turning to AGAATG, the binding signal worked out at 0.917.

For the sequence ATGTGC, the binding signal worked out at 1.1.

With GATGTA, the binding signal is 1.49.

Consider CCCCCC, for which the binding signal was 1.1.

CCCTGT gave a binding signal of 1.06.

In turn, TCCCCG displayed a binding signal of 1.11.

As to GATTGC, the binding signal turned out to be 0.945.

The sequence TAGACA gave a binding signal of 0.959.

In turn, CATCAA yielded a binding signal of 0.961.

In the case of GCAAAC, the binding signal stood at 0.993.

CATGGG: the binding signal is 0.973.

With TTCCCG, the binding signal came to 1.97.

Take GAAAAT: the binding signal is 1.13.

Regarding GCCCGG, the binding signal was determined as 0.974.

With ACGGTT, the binding signal came to 0.976.

In turn, GGTGGT displayed a binding signal of 0.99.

As to CTATAG, the binding signal is 1.

For GTCTAT, the binding signal came out at 1.01.

AGCTTA had a binding signal of 1.15.

TCGAGT: the binding signal was found to be 0.931.

As for GACCAA, the binding signal came out at 0.996.

In the case of GCCACA, the binding signal amounted to 0.918.

As to TTCCGG, the binding signal came to 6.

ACAGCA registered a binding signal of 1.09.

As to GATTAA, the binding signal worked out at 1.01.

Sequence GCGAAT had a binding signal of 0.968.

In turn, ATGGGG gave a binding signal of 0.984.

Sequence ATATTT displayed a binding signal of 1.58.

In another assay the target is T4, ETV3 (UniProt P41162-2).
T4 sequence: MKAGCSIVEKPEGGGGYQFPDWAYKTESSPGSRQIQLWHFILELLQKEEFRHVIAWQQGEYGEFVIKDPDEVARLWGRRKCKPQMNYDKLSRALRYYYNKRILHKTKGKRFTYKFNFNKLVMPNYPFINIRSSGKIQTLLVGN
The description is as above. Particulars: 10 mM Tris-HCl pH 7.5, 50 mM NaCl, 1 mM DTT, 4% glycerol, room temperature, 30 min; GST-TFs on glutathione beads, 16-mer random dsDNA library, 0.1% …; high values mean tight binding; double strand, one strand shown; scale: fold enrichment (6-mer frequency, TF over GST control).
On to ACCACG, for which the binding signal was found to be 1.04.

On to AACGCA, for which the binding signal turned out to be 1.03.

Consider CGCTAA, for which the binding signal stood at 0.986.

Consider AAAGCA, for which the binding signal was found to be 1.07.

AACGAT showed a binding signal of 1.24.

Sequence ACTGAA registered a binding signal of 1.21.

Sequence AGGTAA registered a binding signal of 0.958.

The sequence GGTCTG returned a binding signal of 0.924.

In turn, GGCAAT displayed a binding signal of 0.972.

For the sequence GAATGG, the binding signal was determined as 0.92.

As for AGAATG, the binding signal is 0.919.

Consider ATGTGC, for which the binding signal amounted to 1.15.

Consider GATGTA, for which the binding signal was found to be 1.39.

CCCCCC: the binding signal stood at 1.14.

Take CCCTGT: the binding signal came to 0.993.

In turn, TCCCCG had a binding signal of 1.27.

For GATTGC, the binding signal was determined as 0.897.

Sequence TAGACA had a binding signal of 0.99.

CATCAA came in with a binding signal of 0.974.

GCAAAC returned a binding signal of 1.04.

As for CATGGG, the binding signal came out at 0.937.

In turn, TTCCCG had a binding signal of 1.92.

For GAAAAT, the binding signal is 1.07.

GCCCGG showed a binding signal of 1.07.

Sequence ACGGTT had a binding signal of 0.966.

Consider GGTGGT, for which the binding signal is 0.938.

Regarding CTATAG, the binding signal worked out at 1.09.

In the case of GTCTAT, the binding signal is 1.

As for AGCTTA, the binding signal is 1.17.

Take TCGAGT: the binding signal came to 0.92.

As for GACCAA, the binding signal is 0.968.

The sequence GCCACA returned a binding signal of 0.931.

In turn, TTCCGG registered a binding signal of 6.28.

On to ACAGCA, for which the binding signal was 1.

Sequence GATTAA displayed a binding signal of 0.994.

Consider GCGAAT, for which the binding signal was 1.07.

Take ATGGGG: the binding signal amounted to 1.13.
